{"sequences": {"note": "The chains behind the UniProt entries cited, without tags or fusion partners. Residues count along the entry.", "UniProt P08113, residues 22-802": "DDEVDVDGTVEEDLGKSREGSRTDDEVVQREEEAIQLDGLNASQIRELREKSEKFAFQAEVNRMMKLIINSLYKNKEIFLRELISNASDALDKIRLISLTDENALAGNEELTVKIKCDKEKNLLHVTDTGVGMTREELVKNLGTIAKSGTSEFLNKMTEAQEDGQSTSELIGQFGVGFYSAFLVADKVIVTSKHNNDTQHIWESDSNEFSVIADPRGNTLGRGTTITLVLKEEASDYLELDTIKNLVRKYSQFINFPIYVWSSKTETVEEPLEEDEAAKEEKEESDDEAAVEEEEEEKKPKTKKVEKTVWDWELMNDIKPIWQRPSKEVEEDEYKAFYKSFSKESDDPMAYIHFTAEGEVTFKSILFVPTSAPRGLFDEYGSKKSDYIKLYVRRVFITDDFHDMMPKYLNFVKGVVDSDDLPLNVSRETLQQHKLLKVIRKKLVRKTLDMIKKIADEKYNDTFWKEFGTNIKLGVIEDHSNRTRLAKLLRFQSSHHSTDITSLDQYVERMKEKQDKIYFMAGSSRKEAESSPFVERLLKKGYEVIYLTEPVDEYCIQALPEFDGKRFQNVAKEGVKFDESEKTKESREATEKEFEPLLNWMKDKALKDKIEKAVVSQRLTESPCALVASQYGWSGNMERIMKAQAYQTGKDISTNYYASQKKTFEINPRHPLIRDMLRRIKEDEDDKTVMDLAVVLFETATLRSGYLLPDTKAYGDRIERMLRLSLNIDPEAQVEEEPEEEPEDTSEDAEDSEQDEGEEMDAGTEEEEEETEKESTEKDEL"}, "source": "patent US20100138941A1", "binders": {"B1": {"name": "biotin-conjugated recombinant AIMP1 protein (protein)", "chain": "MANNDAVLKRLEQKGAEADQIIEYLKQQVSLLKEKAILQATLREEKKLRVENAKLKKEIEELKQELIQAEIQNGVKQIAFPSGTPLHANSMVSENVIQSTAVTTVSSGTKEQIKGGTGDEKKAKEKIEKKGEKKEKKQQSIAGSADSKPIDVSRLDLRIGCIITARKHPDADSLYVEEVDVGEIAPRTVVSGLVNHVPLEQMQNRMVILLCNLKPAKMRGVLSQAMVMCASSPEKIEILAPPNGSVPGDRITFDAFPGEPDKELNPKKKIWEQIQPDLHTNDECVATYKGVPFEVKGKGVCRAQTMSNSGIK", "modifications": "conjugated to biotin with sulfo-biotin reagent (sites not given)"}}, "key": {"[1]": {"biological_target": "gp96 from mouse pancreas protein extract (mouse) (UniProt P08113)", "experiment": "affinity purification from mouse pancreas extract on biotin-AIMP1 streptavidin beads, mass spectrometry"}, "[2]": {"biological_target": "gp96 from mouse pancreas protein extract (mouse) (UniProt P08113)", "experiment": "affinity purification from mouse pancreas extract on biotin-AIMP1 streptavidin beads, SDS-PAGE silver staining, mass spectrometry"}}, "note": "These are yes or no findings as the source states them, for the method shown. In cells and extracts the contact can be indirect. Here binding means that the protein was enriched with, or labelled near, the bait; the list need not be complete.", "data": [{"binder": "B1", "values": [{"measurement": "binding", "setting": "[1]", "value": "binds"}, {"measurement": "binding", "setting": "[2]", "value": "binds"}]}]}
